Results are given in words; binding and its absence hold for the method and conditions named. In cells and extracts the contact can be indirect. Some results given as binding are weak or reduced against the parent protein; the word gives no strength.
Biological target: T1, Vitamin-D receptor (VDR) (human (endogenous in SKOV-3, OVCAR-8, DAOY, D283)) (UniProt P11473)
T1 sequence: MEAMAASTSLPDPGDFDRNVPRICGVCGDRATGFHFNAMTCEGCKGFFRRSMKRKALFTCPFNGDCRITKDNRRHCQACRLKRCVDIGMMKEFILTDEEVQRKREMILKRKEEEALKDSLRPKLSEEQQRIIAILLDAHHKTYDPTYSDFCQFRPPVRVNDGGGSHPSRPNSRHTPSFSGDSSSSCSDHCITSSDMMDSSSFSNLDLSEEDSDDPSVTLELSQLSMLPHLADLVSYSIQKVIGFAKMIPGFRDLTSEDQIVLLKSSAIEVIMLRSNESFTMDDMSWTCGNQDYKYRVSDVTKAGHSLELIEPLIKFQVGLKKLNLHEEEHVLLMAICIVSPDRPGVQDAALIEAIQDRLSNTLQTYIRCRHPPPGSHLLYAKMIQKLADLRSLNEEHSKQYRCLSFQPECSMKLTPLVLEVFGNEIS
Assay: co-IP

The chains behind the UniProt entries cited, without tags or fusion partners. Residues count along the entry.
UniProt Q9NZQ7, residues 19-290: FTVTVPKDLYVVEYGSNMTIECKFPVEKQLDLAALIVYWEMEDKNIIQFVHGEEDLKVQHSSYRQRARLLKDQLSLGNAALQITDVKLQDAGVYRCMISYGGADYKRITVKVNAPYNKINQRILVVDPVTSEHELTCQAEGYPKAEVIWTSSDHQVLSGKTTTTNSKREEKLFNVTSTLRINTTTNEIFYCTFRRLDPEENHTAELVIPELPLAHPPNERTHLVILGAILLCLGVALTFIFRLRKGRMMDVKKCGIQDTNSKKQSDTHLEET

“Programmed death receptor ligand (PD-L1) (from UniProt Q9NZQ7 19-290)” was tested, and the binding was “binds”.
